The other results are listed elsewhere or left out. Most values lie at the level of the controls, where differences are scatter.

Chains of the proteins cited; added tags and fusions are not shown. Lines headed by an entry give the natural chain unless they say otherwise; changes in a name come on top.
UniProt Q9WVM8: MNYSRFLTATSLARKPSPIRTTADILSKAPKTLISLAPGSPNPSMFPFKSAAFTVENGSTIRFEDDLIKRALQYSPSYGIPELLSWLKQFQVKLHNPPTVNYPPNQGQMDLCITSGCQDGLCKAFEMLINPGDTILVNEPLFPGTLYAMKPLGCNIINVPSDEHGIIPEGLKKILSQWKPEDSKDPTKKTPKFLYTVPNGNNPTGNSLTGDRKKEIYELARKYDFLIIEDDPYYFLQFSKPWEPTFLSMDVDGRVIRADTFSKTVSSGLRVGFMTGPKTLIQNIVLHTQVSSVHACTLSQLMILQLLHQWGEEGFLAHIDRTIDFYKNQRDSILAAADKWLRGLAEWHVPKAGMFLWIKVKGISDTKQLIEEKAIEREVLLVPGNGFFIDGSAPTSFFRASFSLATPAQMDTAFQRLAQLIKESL
UniProt Q9Z148: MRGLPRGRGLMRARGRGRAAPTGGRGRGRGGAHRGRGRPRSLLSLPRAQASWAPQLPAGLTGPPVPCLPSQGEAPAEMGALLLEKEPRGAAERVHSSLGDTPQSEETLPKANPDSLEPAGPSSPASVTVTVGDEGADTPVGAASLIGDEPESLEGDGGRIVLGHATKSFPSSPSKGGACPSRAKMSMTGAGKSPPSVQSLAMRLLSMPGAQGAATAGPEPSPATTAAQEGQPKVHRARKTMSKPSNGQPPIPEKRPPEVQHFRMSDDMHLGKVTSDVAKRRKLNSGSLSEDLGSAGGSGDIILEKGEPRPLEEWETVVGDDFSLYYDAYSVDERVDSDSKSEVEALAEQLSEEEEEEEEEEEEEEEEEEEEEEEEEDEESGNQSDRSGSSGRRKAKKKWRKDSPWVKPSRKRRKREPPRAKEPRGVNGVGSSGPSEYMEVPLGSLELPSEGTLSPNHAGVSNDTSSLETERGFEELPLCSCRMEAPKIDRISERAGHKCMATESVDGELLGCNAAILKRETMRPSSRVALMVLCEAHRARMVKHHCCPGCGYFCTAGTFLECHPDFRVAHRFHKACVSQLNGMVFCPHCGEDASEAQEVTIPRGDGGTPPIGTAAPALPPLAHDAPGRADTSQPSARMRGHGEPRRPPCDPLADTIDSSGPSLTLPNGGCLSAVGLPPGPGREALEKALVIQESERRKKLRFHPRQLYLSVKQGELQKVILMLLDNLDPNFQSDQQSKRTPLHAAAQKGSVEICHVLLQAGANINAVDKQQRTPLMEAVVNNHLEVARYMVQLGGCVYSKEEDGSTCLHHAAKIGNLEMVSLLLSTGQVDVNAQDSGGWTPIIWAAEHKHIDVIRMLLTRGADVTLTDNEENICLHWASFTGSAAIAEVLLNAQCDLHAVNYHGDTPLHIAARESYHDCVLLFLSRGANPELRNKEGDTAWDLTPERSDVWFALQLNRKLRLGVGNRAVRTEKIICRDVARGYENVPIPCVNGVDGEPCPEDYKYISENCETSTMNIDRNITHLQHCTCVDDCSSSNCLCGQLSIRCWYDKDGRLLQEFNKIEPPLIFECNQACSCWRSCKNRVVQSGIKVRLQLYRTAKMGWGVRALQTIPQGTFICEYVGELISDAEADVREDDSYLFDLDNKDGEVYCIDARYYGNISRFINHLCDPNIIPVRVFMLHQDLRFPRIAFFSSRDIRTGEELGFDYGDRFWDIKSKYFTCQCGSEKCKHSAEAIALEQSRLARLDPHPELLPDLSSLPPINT
UniProt Q9Z1T1: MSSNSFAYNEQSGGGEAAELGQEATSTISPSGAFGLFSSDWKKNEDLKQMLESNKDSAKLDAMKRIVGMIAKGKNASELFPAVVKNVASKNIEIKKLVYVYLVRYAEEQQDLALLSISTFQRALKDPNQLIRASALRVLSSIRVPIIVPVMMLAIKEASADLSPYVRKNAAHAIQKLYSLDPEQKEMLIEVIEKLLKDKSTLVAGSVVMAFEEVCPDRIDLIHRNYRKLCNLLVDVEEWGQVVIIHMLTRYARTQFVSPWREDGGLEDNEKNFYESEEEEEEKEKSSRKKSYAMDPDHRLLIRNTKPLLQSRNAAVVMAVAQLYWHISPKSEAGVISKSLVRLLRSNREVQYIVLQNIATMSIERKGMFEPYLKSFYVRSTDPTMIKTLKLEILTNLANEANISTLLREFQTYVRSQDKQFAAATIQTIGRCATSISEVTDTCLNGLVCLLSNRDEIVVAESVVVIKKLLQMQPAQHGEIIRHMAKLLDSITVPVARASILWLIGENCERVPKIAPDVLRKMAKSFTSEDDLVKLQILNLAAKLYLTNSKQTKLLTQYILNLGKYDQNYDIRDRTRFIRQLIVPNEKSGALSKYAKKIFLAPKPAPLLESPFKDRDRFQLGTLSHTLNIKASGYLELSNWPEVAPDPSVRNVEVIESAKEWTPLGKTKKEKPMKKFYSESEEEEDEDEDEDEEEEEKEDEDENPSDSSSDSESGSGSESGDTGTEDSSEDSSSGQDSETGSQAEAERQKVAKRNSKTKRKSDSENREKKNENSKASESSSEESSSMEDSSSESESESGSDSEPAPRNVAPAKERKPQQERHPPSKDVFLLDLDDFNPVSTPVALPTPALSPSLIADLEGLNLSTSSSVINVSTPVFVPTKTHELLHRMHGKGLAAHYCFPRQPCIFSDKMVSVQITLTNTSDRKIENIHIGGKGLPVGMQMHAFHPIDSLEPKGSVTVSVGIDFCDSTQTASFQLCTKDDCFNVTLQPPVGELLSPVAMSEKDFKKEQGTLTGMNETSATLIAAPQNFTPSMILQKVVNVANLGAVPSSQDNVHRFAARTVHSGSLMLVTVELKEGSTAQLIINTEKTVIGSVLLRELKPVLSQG

Compound in the assay: CN[C@@H]1C[C@H]2O[C@@](C)([C@@H]1OC)n1c3ccccc3c3c4c(c5c6ccccc6n2c5c31)C(=O)NC4 [staurosporine]
Put plainly: log2 fold change of tryptic peptide abundance, ligand vs vehicle (limited proteolysis) (log2 ratio); higher = more trypsin-susceptible (destabilized). As to conditions: ligand concentration: 20 uM; sample: mouse liver crude lysate; replicate design: treated separately.
For the target “UniProt Q9WVM8 (peptide sequence: ILSQWKPEDSKDPTK, peptide start residue: 174)”, the log2 fold change is -0.285.
To “UniProt Q9Z148 (peptide sequence: VALMVLCEAHR, peptide start residue: 528)” belongs 0.18.
Under “UniProt Q9Z1T1 (peptide sequence: EDGGLEDNEK, peptide start residue: 262)” stands 0.598.
